Values from PubChem BioAssay AID686943 (Drosophila RNAi Screening Center, 2013)
Assay: 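Knockdowns that increase or decrease active ERK after insulin receptor stimulation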 (primary screen). Cell system: Drosophila S2R+ haemocyte-like cells expressing YFP-tagged ERK (Rolled). Knock-down reagent: long dsRNA against Drosophila genes. Challenge: insulin stimulation versus unstimulated cells; dose and duration not given. Detection: 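Antibody staining for doubly phosphorylated ERK divided by ERK-YFP signal, as plate z-scores, in insulin-treated and untreated cells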. Direction: replicate 1, z-score of dpERK with insulin and replicate 2, z-score of dpERK with insulin: higher = more active ERK per ERK-YFP after insulin; replicate 1, z-score of dpERK under basal conditions: higher = more basal active ERK per ERK-YFP; replicate 1, z-score of ERK-YFP with insulin: higher = more YFP-tagged ERK signal.
The deposit covers about 23,000 reagents; shown is an unselected part of those that have a named target and a result. 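Extra replicates exist only for a retested subset of genes; insulin dose and duration not given; both raised and lowered dpERK matter.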 The numbers tell different reagents against one gene apart. Not given: the amount of reagent, the time to read-out.

no.	target	reagent	replicate 1, z-score of dpERK with insulin	replicate 2, z-score of dpERK with insulin	replicate 1, z-score of dpERK under basal conditions	replicate 1, z-score of ERK-YFP with insulin
1	Aasdh (GeneID 34175)	1	-0.16	-0.77	-0.16	-0.03
2	HP1D3csd (GeneID 32906)	1	1.07	0.62	0.25	-0.05
3	CG10702 (GeneID 35181)	1	-0.35	-0.57	0.63	0.34
4	mRpS31 (GeneID 39749)	1	0.01	-0.23	-0.93	0.27
5	Cpr47Eg (GeneID 36196)	1	-0.8	-0.43	0.1	0.52
6	SmD3 (GeneID 36306)	1	2.09	2.2	-1.75	-1.17
7	CG13895 (GeneID 38087)	1	0.03	0.41	1.61	0.74
8	CG15425 (GeneID 33630)	1	0.18	0.14	2.67	-0.17
9	CG13540 (GeneID 37686)	1	0	-1.29	-0.45	0.21
10	mRpS16 (GeneID 36570)	1	-1.15	-0.33	-0.44	1.09
11	Drep1 (GeneID 36290)	1	-0.16	-0.18	0.08	0.02
12	Pu (GeneID 37415)	1	-0.72	-0.9	0.48	-0.58
13	CG12360 (retired record) (GeneID 41603)	1	0.32	0.4	0.22	0.16
14	CG7079 (GeneID 42488)	1	0.1	0.14	-0.88	1.04
15	CG30369 (GeneID 246572)	1	-0.29	-0.5	1.32	0.31
16	CG8483 (GeneID 41623)	1	0	-0.01	-0.41	-1.05
17	CG4927 (GeneID 36852)	1	0.03	-0.13	1.89	0.09
18	grh (GeneID 37038)	1	0.37	0.98	1.8	0.88
19	grh (GeneID 37038)	2	-3.96	-4.45	-1.27	2.97
20	grh (GeneID 37038)	3	0.8	-0.14	0.73	-0.43
21	grh (GeneID 37038)	4	0	-0.84	-0.82	0.77
22	CG3226 (GeneID 31597)	1	0.99	-0.66	-1.03	-0.2
23	hbn (GeneID 47894)	1	-5.54	-3.94	-1.48	-4
24	hbn (GeneID 47894)	2	0.02	-0.11	0.7	1.09
25	hbn (GeneID 47894)	3	-2.05	-1.3	-0.64	0.9
26	hbn (GeneID 47894)	4	1.08	1.24	1.63	-2.03
27	CG32053 (GeneID 39178)	1	0.18	0.33	-0.35	-0.95
28	CG43373 (GeneID 39835)	1	-0.04	-0.66	-0.65	-0.46
29	CG43373 (GeneID 39835)	2	1.23	1.23	0.96	-0.09
30	dj-1beta (GeneID 43652)	1	-0.25	-0.1	-0.62	0.89
31	CG34304 (retired record) (GeneID 5740404)	1	-0.42	0.05	1.02	0.2
32	CG11560 (GeneID 39376)	1	-0.23	0.71	0.38	0.2
33	CG4679 (GeneID 36466)	1	0.27	0.52	-1.26	0.54
34	NimB5 (GeneID 34815)	1	-0.89	-0.18	0.03	0.24
35	mtrm (GeneID 38958)	1	-1.74	-2.49	-0.24	1.99
36	Obp83cd (GeneID 40746)	1	0.21	-0.79	0.34	0.79
37	CG12439 (GeneID 34234)	1	0.6	0.06	0.51	0.33
38	sens (GeneID 45328)	1	-5.63	-3.97	-1.91	-2.2
39	Set2 (GeneID 32301)	1	0.46	1.15	0.6	-0.84

Laid out differently: 3 of the entries above
{"target": "grh (GeneID 37038)", "reagent": 3, "replicate 1, z-score of dpERK with insulin": 0.8, "replicate 2, z-score of dpERK with insulin": -0.14, "replicate 1, z-score of dpERK under basal conditions": 0.73, "replicate 1, z-score of ERK-YFP with insulin": -0.43}
{"target": "grh (GeneID 37038)", "reagent": 4, "replicate 1, z-score of dpERK with insulin": 0, "replicate 2, z-score of dpERK with insulin": -0.84, "replicate 1, z-score of dpERK under basal conditions": -0.82, "replicate 1, z-score of ERK-YFP with insulin": 0.77}
{"target": "CG3226 (GeneID 31597)", "reagent": 1, "replicate 1, z-score of dpERK with insulin": 0.99, "replicate 2, z-score of dpERK with insulin": -0.66, "replicate 1, z-score of dpERK under basal conditions": -1.03, "replicate 1, z-score of ERK-YFP with insulin": -0.2}
